PubChem BioAssay AID686938 – Drosophila RNAi Screening Center | 2013

Test: 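Looking for CRAC channel components and the factors controlling them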 (primary screen)
Cells: Drosophila S2R+ cells
Reagent: long dsRNA against Drosophila genes, about 0.25 µg dsRNA per well, roughly 10,000 cells
Time to read-out: 5 days of knock-down before the calcium assay
Challenge: thapsigargin (SERCA pump blocker) to empty calcium stores; entry signal taken 4 min after adding it
Measurement: 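Per-well fluo-4 fluorescence in two replicates, unnormalised, measured in resting cells and 4 min after store depletion by the SERCA blocker thapsigargin; ratio of the two present in few wells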
Scale: calcium entry signal: higher = stronger calcium signal after store depletion; resting calcium signal: higher = higher resting calcium signal
Active means: 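Called when the plate z-score of the entry-to-rest ratio, mean of duplicates, falls below −3; wells with low overall dye signal (Fmax z below −2) or more than five off-targets excluded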
Meaning of the calls: active = strongly reduced calcium entry; inactive = no strong reduction
The screen tested about 23,000 reagents; this is a random part of those with a known target gene and a result. In the full data, 75 (0.33%) got an active call. 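Raw plate signals without normalisation; calls rest on plate z-scores that were not deposited; ratio present for only 364 wells.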 Entries without a mark were called inactive. The numbers tell different reagents against one gene apart. Names joined by + are all predicted targets of the reagent. Reagent sequences are not shown. Not given: the dose of the treatment.

Target gene | reagent no. | calcium entry signal, replicate 1 (fluorescence units) | calcium entry signal, replicate 2 (fluorescence units) | resting calcium signal, replicate 1 (fluorescence units) | resting calcium signal, replicate 2 (fluorescence units)
CG33773 | 1 | 3.14e7 | 4.02e7 | 1.62e7 | 1.62e7
CG42449 | 1 | 3.54e7 | 7.62e7 | 1.85e7 | 3.82e7
CG16789 | 1 | 3.32e7 | 3.10e7 | 1.51e7 | 1.55e7
ecd (ecdysoneless) | 1 | 4.50e7 | 4.01e7 | 2.18e7 | 2.12e7
CG14907 + Mettl4 | 1 | 2.39e7 | 4.62e7 | 1.26e7 | 7.50e7
CG14907 + Mettl4 | 2 | 2.45e7 | 4.31e7 | 1.29e7 | 4.85e7
Mis12 | 1 | 3.05e7 | 3.47e7 | 1.68e7 | 1.78e7
CG8891 | 1 | 3.53e7 | 2.97e7 | 1.70e7 | 1.57e7
CG4293 | 1 | 4.58e7 | 5.31e7 | 2.12e7 | 2.40e7
CG11200 | 1 | 4.12e7 | 3.01e7 | 1.88e7 | 1.62e7
sens (senseless) | 1 | 4.77e7 | 4.25e7 | 2.71e7 | 2.48e7
sens (senseless) | 2 | 2.69e7 | 2.67e7 | 1.38e7 | 1.21e7
CG42717 | 1 | 4.14e7 | 3.61e7 | 1.88e7 | 1.83e7
Prp6 (pre-mRNA processing factor 6) | 1 | 3.77e7 | 5.16e7 | 1.75e7 | 2.38e7
Prp6 (pre-mRNA processing factor 6) | 2 | 3.68e7 | 3.66e7 | 2.36e7 | 1.72e7
mRpS6 (mitochondrial ribosomal protein S6) | 1 | 2.06e7 | 3.42e7 | 9.46e6 | 1.42e7
p53 | 1 | 5.35e7 | 4.19e7 | 2.41e7 | 1.95e7
CG7071 + Muted | 1 | 4.61e7 | 5.29e7 | 5.00e7 | 2.36e7
CG30485 | 1 | 3.51e7 | 4.10e7 | 1.86e7 | 1.85e7
Spn31A (Serpin 31A) | 1 | 2.36e7 | 3.44e7 | 1.19e7 | 1.65e7
CG30096 | 1 | 3.90e7 | 4.26e7 | 2.09e7 | 1.82e7
Girdin | 1 | 2.97e7 | 3.51e7 | 1.56e7 | 1.57e7
CG8950 | 1 | 4.10e7 | 3.67e7 | 1.86e7 | 1.73e7
CG17982 | 1 | 2.98e7 | 3.92e7 | 1.50e7 | 1.80e7
Rhau (RHAU helicase) | 1 | 2.37e7 | – | 1.29e7 | –
PolD1 (DNA polymerase delta subunit 1) | 1 | 4.05e7 | 4.22e7 | 2.04e7 | 1.90e7
Acp29AB (Accessory gland protein 29AB) | 1 | 3.36e7 | 3.89e7 | 1.72e7 | 1.92e7
CG31104 | 1 | 3.84e7 | 5.39e7 | 2.13e7 | 2.16e7
Blos3 | 1 | 3.42e7 | 3.23e7 | 1.68e7 | 1.61e7
HemK1 (HemK methyltransferase 1) | 1 | 4.28e7 | – | 2.37e7 | –
CG15646 | 1 | 2.55e7 | 3.67e7 | 1.49e7 | 1.71e7
psidin (phagocyte signaling impaired) | 1 | 2.80e7 | 3.32e7 | 3.57e7 | 1.37e7
CG12517 | 1 | 3.63e7 | 4.22e7 | 1.72e7 | 1.93e7
CG34012 | 1 | 3.50e7 | 3.19e7 | 1.80e7 | 1.54e7
RpL23A (Ribosomal protein L23A) | 1 | 1.52e7 | 2.10e7 | 9.93e6 | 1.35e7
RpL23A (Ribosomal protein L23A) | 2 | 3.20e7 | 4.94e7 | 1.59e7 | 2.68e7
v (vermilion) | 1 | 2.39e7 | 2.86e7 | 1.16e7 | 1.32e7
Nacalpha (Nascent polypeptide associated complex protein alpha subunit) | 1 | 2.47e7 | 3.45e7 | 1.46e7 | 1.91e7
CG42662 + CG30080 | 1 | 4.41e7 | 4.10e7 | 2.09e7 | 1.68e7
POLDIP2 (Polymerase (DNA-directed), delta interacting protein 2) | 1 | 2.48e7 | 3.32e7 | 1.08e7 | 1.43e7

Records listed so far whose target name begins with R or r (3):
Target gene | reagent no. | calcium entry signal, replicate 1 (fluorescence units) | calcium entry signal, replicate 2 (fluorescence units) | resting calcium signal, replicate 1 (fluorescence units) | resting calcium signal, replicate 2 (fluorescence units)
Rhau (RHAU helicase) | 1 | 2.37e7 | – | 1.29e7 | –
RpL23A (Ribosomal protein L23A) | 1 | 1.52e7 | 2.10e7 | 9.93e6 | 1.35e7
RpL23A (Ribosomal protein L23A) | 2 | 3.20e7 | 4.94e7 | 1.59e7 | 2.68e7
